For 4 molecules, binding results are on record in PMC12748396.

Results are given in words; binding and its absence hold for the method and conditions named. In cells and extracts the contact can be indirect. Some entries that bind do so weakly or less than the wild type. For some of these results: Where a sequence is shown, tags or fusion partners need not be part of it.

For assay [1], the target named is T1, GST-IL-13 fusion protein (mouse) (UniProt P20109).
T1 sequence: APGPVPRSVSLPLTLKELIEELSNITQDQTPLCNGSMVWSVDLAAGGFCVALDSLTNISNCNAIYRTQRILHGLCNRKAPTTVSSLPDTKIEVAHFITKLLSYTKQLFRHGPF
The experiment in a line: pull-down; GST-IL-13 immobilised on GST beads, incubated with binding buffer containing His-tagged Trem2 fragments expressed in HEK-293T cells; Western blotting.

Assay [2] addresses T2, Trem2, transfected in HEK293T cells (UniProt Q99NH8).
T2 sequence: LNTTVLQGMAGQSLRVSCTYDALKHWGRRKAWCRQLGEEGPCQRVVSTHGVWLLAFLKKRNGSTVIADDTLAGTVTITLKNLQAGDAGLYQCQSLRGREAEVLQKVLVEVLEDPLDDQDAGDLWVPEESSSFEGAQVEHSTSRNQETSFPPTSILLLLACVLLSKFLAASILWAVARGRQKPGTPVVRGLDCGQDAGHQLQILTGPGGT
The experiment in a line: co-IP; lysates of transfected HEK-293T cells incubated overnight at 4 °C with anti-IL-13 or anti-Trem2 antibodies, protein A/G Plus-agarose 2 h, Western blotting.

For assay [3], the target named is T3, Trem2, endogenous in RAW 264.7 cells (mouse (endogenous in RAW 264.7)) (UniProt Q99NH8).
T3 sequence: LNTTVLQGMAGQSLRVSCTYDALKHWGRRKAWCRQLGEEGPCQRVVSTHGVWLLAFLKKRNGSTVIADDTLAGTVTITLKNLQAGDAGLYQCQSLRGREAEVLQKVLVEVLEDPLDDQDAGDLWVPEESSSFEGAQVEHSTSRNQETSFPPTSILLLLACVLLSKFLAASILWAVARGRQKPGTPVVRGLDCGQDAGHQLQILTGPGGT
The experiment in a line: co-IP; endogenous proteins; lysates of RAW 264.7 cells and of RAW 264.7 cells with IL-13 receptor knockout (IL-13R-KO), anti-IL-13 or anti-Trem2 antibodies overnight at 4 °C, protein A/G Plus-agarose 2 h, Western blotting.

B1: His-Trem2 [NT-aa1-132] (domain or fragment, UniProt Q99NH8 19-132)
chain: LNTTVLQGMAGQSLRVSCTYDALKHWGRRKAWCRQLGEEGPCQRVVSTHGVWLLAFLKKRNGSTVIADDTLAGTVTITLKNLQAGDAGLYQCQSLRGREAEVLQKVLVEVLEDP
For B1, in assay [1], the binding result is “binds”.

B2: His-Trem2 [NT-aa133-227] (domain or fragment, UniProt Q99NH8 133-227)
chain: LDDQDAGDLWVPEESSSFEGAQVEHSTSRNQETSFPPTSILLLLACVLLSKFLAASILWAVARGRQKPGTPVVRGLDCGQDAGHQLQILTGPGGT
Consider B2, for which the binding result in assay [1] is reported as “no binding”.

B3: IL-13, transfected in HEK293T cells (ligand, UniProt P20109 19-131)
chain: APGPVPRSVSLPLTLKELIEELSNITQDQTPLCNGSMVWSVDLAAGGFCVALDSLTNISNCNAIYRTQRILHGLCNRKAPTTVSSLPDTKIEVAHFITKLLSYTKQLFRHGPF
On to B3, for which, in assay [2], the binding entry was “binds”.

B4: IL-13, endogenous in RAW 264.7 cells (ligand, UniProt P20109 19-131)
chain: APGPVPRSVSLPLTLKELIEELSNITQDQTPLCNGSMVWSVDLAAGGFCVALDSLTNISNCNAIYRTQRILHGLCNRKAPTTVSSLPDTKIEVAHFITKLLSYTKQLFRHGPF
Consider B4, for which the binding entry in assay [3] is “binds”.
